Reference: PubChem BioAssay AID504648 (National Center for Advancing Translational Sciences (NCATS), 2011)
The campaign covered roughly 390,000 compounds. About 610 (0.16%) were called active. The shares of active, inactive and inconclusive entries below differ from those in the screen. The call rests on the fitted dose curve; in most records, active means well fitted inhibition curve with a large enough effect; inconclusive means small, poorly fitted or top-dose-only effect, or effect the other way, or another doubt; inactive means no such curve, though single readings can be large or run the other way. Potencies beside an inconclusive call are fits to weak or partial responses and may not hold up.
Potency means the concentration at half of the fitted maximal effect.

Test: Nrf2 qHTS screen for inhibitors: counterscreen for cytotoxicity
Conditions: A549 ARE-Fluc cells, CellTiter-Fluor viability, 18-24 h; series mostly up to 46 µM
Method in brief: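 Cytotoxicity counterscreen: CellTiter-Fluor fluorescence was measured in A549 ARE_Fluc cells after 18-24 h of compound exposure in a concentration series. The subsequent BugLite luminescent read reports ARE-luciferase activity.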
In the case of `O=C(Nc1ccc(N2CCOCC2)nc1)c1ccc(Cl)cc1`, the Potency is reported as “inactive”. For `CCN(CC)CCn1c(=N)n(CC(O)COc2cccc(C)c2)c2ccccc21` (centres undefined), the Potency was inconclusive: 20.6 µM [falling, single point]. In the case of `N=c1n(Cc2ccccc2)c2ccccc2n1CC(O)COc1ccccc1` (centres undefined), the Potency is reported as inconclusive: 25.9 µM [falling, single point]. For `C=CCC(C(=O)OC)(C(=O)OC)c1ccc([N+](=O)[O-])cn1`, the Potency was inconclusive: 16.4 µM [activator, partial curve, poor fit]. With `Cc1cccc(Oc2cc([N+](=O)[O-])cc3c2C(=O)Nc2ccccc2O3)c1` the Potency was “inactive”. In the case of `C#CCOCCOCCOCCNc1nc(N2CCN(C(=O)CCCCCCCCCCNC(=O)[C@H](CCCCN)n3cc(C)nn3)CC2)nc(N2CCN(C(=O)CCCCCCCCCCNC(=O)[C@H](CCCN=C(N)N)n3cc(C[C@@H](C)CC)nn3)CC2)n1`, the Potency is reported as inconclusive: 18.4 µM [falling, single point]. With `COc1cc(OC)c2ccc(=O)oc2c1C(CC(=O)N1CCOCC1)c1ccc2c(c1)OCO2` (centres undefined) the Potency was “inactive”. For `CC(C)CNC(=O)Nc1ccccc1F`, the Potency was inconclusive: 4.61 µM [activator, full curve]. With `CC1(C)COC(/C=C/c2cccc([N+](=O)[O-])c2)=N1` the Potency was inconclusive: 29.1 µM [falling, single point]. With `C#CCOCCOCCOCCNc1nc(N2CCN(C(=O)[C@H]([C@@H](C)CC)n3cc([C@@H](N)CO)nn3)CC2)nc(N2CCN(C(=O)[C@H]([C@@H](C)CC)n3cc([C@@H](N)CC(C)C)nn3)CC2)n1` the Potency was inconclusive: 25.9 µM [activator, partial curve, poor fit]. In the case of `C=C(c1ccccc1)c1ccc(N(C)C)cc1`, the Potency is reported as “inactive”. In the case of `CCCOc1cccc(C2c3c(oc4ccc(F)cc4c3=O)C(=O)N2CCc2ccc(OC)cc2)c1` (centres undefined), the Potency is reported as “inactive”. In the case of `Cc1ccc(NC(=O)C2CCN(S(=O)(=O)c3cccc4nonc34)CC2)nc1`, the Potency is reported as “inactive”. With `Cc1ccccc1-c1nc(CS(=O)(=O)CC(=O)NCCCc2ccccc2)c(C)o1` the Potency was inconclusive: 20.6 µM [falling, partial curve, poor fit]. With `CC(C)c1ccc(NC(=O)c2cc(Br)ccc2Br)cc1` the Potency was inconclusive: 8.2 µM [activator, partial curve, poor fit]. With `COc1ccccc1CNC(=O)Cn1nc(C)n2cccc2c1=O` the Potency was “inactive”. In the case of `CCN1C(=O)/C(=C\N2CCCCCC2)SC1=S`, the Potency is reported as inconclusive: 29.1 µM [falling, partial curve, poor fit]. For `O=C(CCSc1ccccc1)Nc1nc2c(s1)COc1ccccc1-2`, the Potency was inconclusive: 6.51 µM [falling, partial curve, poor fit]. With `COc1ccc(C2C3C=CCC(c4cccc(-c5ccc(C)cc5)c4)C3C(=O)N2Cc2ccccc2)cc1Cl` (centres undefined) the Potency was “inactive”. For `CCOC(=O)c1c(C)[nH]c(C)c1S(=O)(=O)N1CCC(C(=O)Nc2ccccc2CC)CC1`, the Potency was “inactive”. In the case of `Clc1ccc2nnnc(-c3ccccc3)c2c1`, the Potency is reported as inconclusive: 20.6 µM [falling, single point]. For `COc1cc(/C=C2\SC(=S)N(CCC(=O)N3CCCCC3)C2=O)cc(OC)c1OC`, the Potency was inconclusive: 20.6 µM [falling, single point]. For `CC1(C)N=C(SCc2ccc(Cl)cc2)c2ccccc2N1`, the Potency was inconclusive: 32.6 µM [activator, partial curve, poor fit]. In the case of `O=C(Nc1cccc(-c2csc(Nc3ccc(Cl)cc3)n2)c1)c1cc([N+](=O)[O-])cc(C(F)(F)F)c1`, the Potency is reported as inconclusive: 25.9 µM [falling, partial curve, poor fit]. In the case of `C#CCOCCOCCOCCNc1nc(N2CCN(C(=O)CCCCCCCCCCNC(=O)[C@H]([C@@H](C)CC)n3cc(CCCCN=C(N)N)nn3)CC2)nc(N2CCN(C(=O)CCCCCCCCCCNC(=O)[C@H](CCCCN)n3cc(C)nn3)CC2)n1`, the Potency is reported as inconclusive: 29.1 µM [falling, single point]. With `N#Cc1nc(Nc2cccc(Cl)c2)c2ncn(C3CCCC3)c2n1` the Potency was inconclusive: 32.6 µM [falling, partial curve, poor fit]. For `C=CCOc1ccc(CN(C)CC(O)COc2cccc3ccccc23)cc1` (centres undefined), the Potency was inconclusive: 25.9 µM [falling, partial curve, poor fit]. In the case of `CCNC(=S)N1CCN(c2ccc([N+](=O)[O-])cc2)CC1`, the Potency is reported as inconclusive: 23.1 µM [falling, single point]. In the case of `COc1ccc(N2CCN(C(=O)c3cn(CC4CCCCC4)nn3)CC2)cc1`, the Potency is reported as “inactive”. With `CN(C)c1cccc2c1C(=O)c1ccccc1C2=O` the Potency was inconclusive: 13 µM [falling, partial curve, poor fit]. In the case of `Cc1cc2nc(N3C(=O)CNC3=S)sc2cc1C`, the Potency is reported as “inactive”. With `COc1cc(OC)cc(C(=O)N/N=C/c2ccc(OC)c(COc3ccc(F)cc3)c2)c1` the Potency was inconclusive: 7.31 µM [falling, partial curve, poor fit]. In the case of `O=[N+]([O-])c1ccc(NNC(=S)Nc2ccc(F)cc2)cc1`, the Potency is reported as inconclusive: 25.9 µM [falling, single point]. For `CCOc1ccc(NCc2nnc(SCc3ccccc3Cl)n2-c2ccccc2)cc1`, the Potency was inconclusive: 29.1 µM [falling, single point]. With `C/C(=N\NC(=O)CCc1c(C)n[nH]c1C)c1ccc([N+](=O)[O-])cc1` the Potency was inconclusive: 23.1 µM [activator, single point]. For `CN(C)c1ccc(C=c2c3ccccc3n3c2cc(-c2ccc(Cl)cc2)[n+]3C)cc1`, the Potency was inconclusive: 29.1 µM [falling, single point]. With `COC(=O)c1c(NC(=O)c2ccccc2N(C)S(=O)(=O)c2ccccc2)sc2c1CCCC2` the Potency was inconclusive: 6.51 µM [falling, partial curve, poor fit]. For `CC(=O)Nc1ccc(S(=O)(=O)Nc2cc(C)cn(Cc3ccccc3)c2=O)cc1`, the Potency was inconclusive: 5.8 µM [activator, partial curve, poor fit]. For `O=C1CCCC(=O)N1c1ccc(O)cc1`, the Potency was inconclusive: 20.6 µM [activator, partial curve, poor fit].
